# The list shows a part of the results.
# The chains behind the UniProt entries cited, without tags or fusion partners. Where a name states a change or a piece, a line headed by the entry shows the natural chain unless it says otherwise.
# UniProt K7ELL7: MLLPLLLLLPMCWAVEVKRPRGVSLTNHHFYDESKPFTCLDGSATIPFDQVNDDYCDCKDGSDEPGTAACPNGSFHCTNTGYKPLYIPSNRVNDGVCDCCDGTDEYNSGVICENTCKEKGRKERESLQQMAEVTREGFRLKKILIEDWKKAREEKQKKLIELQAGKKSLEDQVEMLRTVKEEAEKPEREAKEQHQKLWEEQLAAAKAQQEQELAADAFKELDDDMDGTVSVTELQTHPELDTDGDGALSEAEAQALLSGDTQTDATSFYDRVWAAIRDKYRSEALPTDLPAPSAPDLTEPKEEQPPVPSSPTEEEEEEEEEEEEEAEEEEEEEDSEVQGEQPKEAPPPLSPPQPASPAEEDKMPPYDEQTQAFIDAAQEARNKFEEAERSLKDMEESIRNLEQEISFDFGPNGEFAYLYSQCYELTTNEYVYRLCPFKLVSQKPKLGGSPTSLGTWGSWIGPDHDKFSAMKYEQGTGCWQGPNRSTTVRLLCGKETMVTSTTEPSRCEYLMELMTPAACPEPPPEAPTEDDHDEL
# UniProt P07478, whole entry, looked up: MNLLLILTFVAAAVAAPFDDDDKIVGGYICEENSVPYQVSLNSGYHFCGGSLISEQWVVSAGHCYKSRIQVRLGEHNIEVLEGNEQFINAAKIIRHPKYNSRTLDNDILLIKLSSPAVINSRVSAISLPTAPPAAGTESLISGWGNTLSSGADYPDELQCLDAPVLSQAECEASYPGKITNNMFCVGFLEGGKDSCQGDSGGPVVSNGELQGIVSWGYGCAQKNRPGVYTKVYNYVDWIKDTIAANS
# UniProt P49643: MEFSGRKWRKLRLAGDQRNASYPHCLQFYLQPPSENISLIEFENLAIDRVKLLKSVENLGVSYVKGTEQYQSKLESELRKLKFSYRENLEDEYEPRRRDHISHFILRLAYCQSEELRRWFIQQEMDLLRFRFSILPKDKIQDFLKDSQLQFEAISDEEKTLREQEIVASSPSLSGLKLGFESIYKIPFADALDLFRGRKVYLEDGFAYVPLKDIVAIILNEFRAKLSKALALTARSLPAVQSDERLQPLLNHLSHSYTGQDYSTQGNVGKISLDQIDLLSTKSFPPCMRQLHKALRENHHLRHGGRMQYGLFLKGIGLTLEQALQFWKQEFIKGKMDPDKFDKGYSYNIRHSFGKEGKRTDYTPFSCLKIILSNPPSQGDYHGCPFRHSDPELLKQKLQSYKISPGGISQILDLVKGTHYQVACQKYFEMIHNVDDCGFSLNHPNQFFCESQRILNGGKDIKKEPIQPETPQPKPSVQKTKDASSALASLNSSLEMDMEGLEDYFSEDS
# UniProt P49642: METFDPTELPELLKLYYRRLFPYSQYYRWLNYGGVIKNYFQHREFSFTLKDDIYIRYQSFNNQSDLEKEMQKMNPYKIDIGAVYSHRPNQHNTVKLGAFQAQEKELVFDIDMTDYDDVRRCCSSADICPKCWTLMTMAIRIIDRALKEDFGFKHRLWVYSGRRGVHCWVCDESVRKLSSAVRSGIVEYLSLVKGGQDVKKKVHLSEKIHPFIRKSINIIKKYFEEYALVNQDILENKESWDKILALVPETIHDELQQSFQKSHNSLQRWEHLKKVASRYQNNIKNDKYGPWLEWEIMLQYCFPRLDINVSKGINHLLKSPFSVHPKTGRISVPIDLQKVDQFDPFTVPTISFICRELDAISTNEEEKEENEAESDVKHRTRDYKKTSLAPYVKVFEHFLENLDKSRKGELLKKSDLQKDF
# UniProt Q13523: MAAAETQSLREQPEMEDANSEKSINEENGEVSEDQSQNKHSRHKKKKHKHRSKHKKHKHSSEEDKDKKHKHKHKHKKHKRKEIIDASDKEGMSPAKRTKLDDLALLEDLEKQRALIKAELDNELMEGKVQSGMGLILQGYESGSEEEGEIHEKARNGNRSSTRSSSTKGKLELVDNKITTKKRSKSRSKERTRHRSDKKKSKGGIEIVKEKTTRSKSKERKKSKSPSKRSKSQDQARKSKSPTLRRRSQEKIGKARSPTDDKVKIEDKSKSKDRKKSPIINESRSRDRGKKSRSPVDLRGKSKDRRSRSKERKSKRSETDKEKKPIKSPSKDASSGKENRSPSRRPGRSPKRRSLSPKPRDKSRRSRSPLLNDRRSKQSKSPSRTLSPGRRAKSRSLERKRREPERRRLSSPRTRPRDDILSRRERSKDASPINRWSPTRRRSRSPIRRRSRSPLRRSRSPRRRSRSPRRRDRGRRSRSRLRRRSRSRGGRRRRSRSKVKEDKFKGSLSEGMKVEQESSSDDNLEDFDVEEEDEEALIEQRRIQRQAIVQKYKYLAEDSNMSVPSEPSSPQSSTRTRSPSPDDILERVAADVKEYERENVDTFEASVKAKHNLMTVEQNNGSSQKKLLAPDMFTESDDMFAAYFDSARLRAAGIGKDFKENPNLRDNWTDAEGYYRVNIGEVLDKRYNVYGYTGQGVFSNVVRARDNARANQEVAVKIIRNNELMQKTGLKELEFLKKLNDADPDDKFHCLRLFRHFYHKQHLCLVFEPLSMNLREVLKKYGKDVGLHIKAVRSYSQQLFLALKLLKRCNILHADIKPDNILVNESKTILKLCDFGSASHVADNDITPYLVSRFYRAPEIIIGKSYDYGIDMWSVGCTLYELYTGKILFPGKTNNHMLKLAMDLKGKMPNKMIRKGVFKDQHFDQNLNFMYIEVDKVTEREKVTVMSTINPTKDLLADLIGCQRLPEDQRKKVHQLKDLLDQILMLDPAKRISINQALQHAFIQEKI
# UniProt Q9Y255: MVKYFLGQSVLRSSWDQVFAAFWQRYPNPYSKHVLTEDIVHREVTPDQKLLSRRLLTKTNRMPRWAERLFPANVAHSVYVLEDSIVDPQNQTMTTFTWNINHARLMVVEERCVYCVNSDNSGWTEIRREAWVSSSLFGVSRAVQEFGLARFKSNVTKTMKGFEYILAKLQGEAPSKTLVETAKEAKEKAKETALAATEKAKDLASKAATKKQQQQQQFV
# Key:
# Assay in all cases: log2 fold change, soluble protein after heating vs DMSO (PISA); higher = thermal stabilisation; K562 cells, 10 uM, 30 min; active = over 0.2 and 3.5 SD of the protein, either way, in both replicates (recomputed)
# [1] = compound: COC1=CC=C(C=C1)CN2C=CC3=C2C=C(C=C3)C(=O)NO
# Summary of the method: (§1)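 Values are thermal stability changes relative to control samples and are taken from duplicates. They are stated as log2 fold changes. Before quantification by TMTpro 16plex LC-MS/MS with equalised channel sums, K562 cells at 2×10^6 cells/mL were treated with 10 μM compound for 30 min, heated in aliquots for 3 min across 48°C-58°C, pooled, extracted in PBS with 0.5% NP-40 at 4°C, and centrifuged at 21,000xg for 90 min to give the soluble supernatant.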
# [2] = compound: CON(C)C(=O)N1N=C(c2cc(F)ccc2F)S[C@@]1(CCCN)c1ccccc1 [filanesib]
# Summary of the method: as §1
# [3] = compound: CO[C@H]1C[C@@H]2CC[C@@H](C)[C@@](O)(O2)C(=O)C(=O)N2CCCC[C@H]2C(=O)O[C@H]([C@H](C)C[C@@H]2CC[C@H](n3cnnn3)[C@H](OC)C2)CC(=O)[C@H](C)/C=C(\C)[C@@H](O)[C@@H](OC)C(=O)[C@H](C)C[C@H](C)/C=C/C=C/C=C/1C [zotarolimus]
# Summary of the method: as §1
# [4] = compound: COc1cc(C(=O)O)ccc1NC(=O)[C@@H]1N[C@@H](CC(C)(C)C)[C@](C#N)(c2ccc(Cl)cc2F)[C@H]1c1cccc(Cl)c1F [idasanutlin]
# Summary of the method: as §1
# [5] = compound: COc1cc(Nc2ncc3c(n2)-c2ccc(Cl)cc2C(c2c(F)cccc2OC)=NC3)ccc1C(=O)O [alisertib]
# Summary of the method: as §1
# [6] = compound: COc1cc2nc(-c3cc(F)ccc3O)nc(N[C@@H]3CNC[C@H]3C(C)(C)O)c2cc1OC
# Summary of the method: as §1
# [7] = compound: COc1cc2ncnc(Nc3ccc(F)c(Cl)c3)c2cc1OCCCN1CCOCC1 [gefitinib]
# Summary of the method: as §1
# [8] = compound: COc1cccc2cc(-c3nc([C@H]4CC[C@H](C(=O)O)CC4)n4ncnc(N)c34)[nH]c12
# Summary of the method: as §1
# [9] = compound: CS(=O)(=O)CCNCc1ccc(-c2ccc3ncnc(Nc4ccc(OCc5cccc(F)c5)c(Cl)c4)c3c2)o1 [lapatinib]
# Summary of the method: as §1
# [10] = compound: CS(=O)(=O)c1ccc(-c2cnc(N)c(C(=O)Nc3ccccc3)n2)cc1
# Summary of the method: as §1
# [11] = compound: C[C@@H](Oc1cc(-c2cnn(C3CCNCC3)c2)cnc1N)c1c(Cl)ccc(F)c1Cl [crizotinib]
# Summary of the method: as §1
# [12] = compound: C[C@@H]1COCCN1C2=NC(=NC(=C2)C3(CC3)S(=O)(=O)C)C4=C5C=CNC5=CC=C4
# Summary of the method: as §1
# [13] = compound: C[C@H](C1=CC=C(C=C1)C(=O)NC2=C3C=CNC3=NC=C2)N
# Summary of the method: as §1
# [14] = compound: C[C@H](Nc1ncnc2nc[nH]c12)c1cc2cccc(Cl)c2c(=O)n1-c1ccccc1 [duvelisib]
# Summary of the method: as §1
# [15] = compound: Cc1cc(Nc2cc(N3CCN(C)CC3)nc(Sc3ccc(NC(=O)C4CC4)cc3)n2)n[nH]1 [tozasertib]
# Summary of the method: as §1
# [16] = compound: Cc1cc(SCc2sc(-c3ccc(C(F)(F)F)cc3)nc2C)ccc1OCC(=O)O
# Summary of the method: as §1
# [17] = compound: Cc1ccc(-n2nc(C(C)(C)C)cc2NC(=O)Nc2ccc(OCCN3CCOCC3)c3ccccc23)cc1 [doramapimod]
# Summary of the method: as §1
# [18] = compound: Cc1ccc(C(=O)N(CCCN)[C@@H](c2nc3cc(Cl)ccc3c(=O)n2Cc2ccccc2)C(C)C)cc1 [ispinesib]
# Summary of the method: as §1
# [19] = compound: CS(=O)(=O)N1CCN(Cc2cc3nc(-c4cccc5[nH]ncc45)nc(N4CCOCC4)c3s2)CC1 [pictilisib]
# Summary of the method: as §1
# [20] = compound: Cc1cc(Nc2cc(CN3CCOCC3)c3nc(C)c(Cc4ccc(Cl)cc4F)n3n2)n[nH]1 [gandotinib]
# Summary of the method: as §1
Target,log2 fold change [1],log2 fold change [2],log2 fold change [3],log2 fold change [4],log2 fold change [5],log2 fold change [6],log2 fold change [7],log2 fold change [8],log2 fold change [9],log2 fold change [10],log2 fold change [11],log2 fold change [12],log2 fold change [13],log2 fold change [14],log2 fold change [15],log2 fold change [16],log2 fold change [17],log2 fold change [18],log2 fold change [19],log2 fold change [20]
PRKCSH (UniProt K7ELL7),inactive: 0.013,inactive: 0.096,inactive: 0.036,inactive: -0.066,inactive: 0.062,inactive: 0.102,inactive: 0.087,inactive: -0.169,inactive: -0.008,inactive: 0.007,inactive: 0.081,inactive: 0.005,inactive: 0.044,inactive: -0.03,inactive: -0.072,inactive: -0.009,inactive: -0.05,inactive: -0.011,–,–
PRSS2 (UniProt P07478),inactive: 0.017,inactive: 0.028,inactive: 0.072,inactive: -0.056,–,inactive: 0.027,inactive: 0.039,–,inactive: 0.166,inactive: 0.085,inactive: -0.029,inactive: -0.162,inactive: 0.007,inactive: 0.057,inactive: -0.09,inactive: -0.035,inactive: 0.022,–,–,–
PRIM2 (UniProt P49643),inactive: 0.044,inactive: -0.139,inactive: -0.132,inactive: 0.03,inactive: -0.042,inactive: 0.063,inactive: 0.069,inactive: -0.033,inactive: -0.005,inactive: 0.078,inactive: -0.063,inactive: 0.154,inactive: 0.066,–,–,inactive: 0.145,inactive: -0.06,inactive: -0.061,inactive: 0.086,inactive: 0.07
PRIM1 (UniProt P49642),inactive: 0.04,inactive: 0.001,inactive: 0.073,inactive: -0.06,inactive: 0.052,inactive: -0.012,inactive: 0.011,inactive: -0.053,inactive: 0.007,inactive: 0.051,inactive: -0.066,inactive: 0.039,inactive: 0.086,–,–,inactive: 0.102,inactive: 0.007,inactive: -0.082,inactive: 0.021,inactive: -0.131
PPP3CA (UniProt Q08209),inactive: -0.059,inactive: 0.051,inactive: -0.031,inactive: -0.063,inactive: 0.006,inactive: -0.047,inactive: 0.042,inactive: -0.032,inactive: 0.051,inactive: -0.034,inactive: 0.074,–,inactive: -0.05,inactive: 0.016,inactive: 0.101,inactive: 0.112,inactive: -0.058,inactive: 0.061,inactive: 0.033,inactive: -0.126
PRG4 (UniProt Q92954),inactive: 0.17,inactive: 0.081,active: -0.955,inactive: 0.174,inactive: 0.01,–,inactive: 0.034,inactive: 0.229,–,inactive: 0.08,inactive: -0.19,inactive: -0.014,inactive: 0.023,–,–,inactive: 0.004,inactive: -0.229,inactive: -0.114,inactive: -0.062,inactive: 0.098
PRPF4B (UniProt Q13523),inactive: -0.024,inactive: 0.253,inactive: 0.187,inactive: 0.164,inactive: -0.047,inactive: -0.1,inactive: -0.023,inactive: 0.003,inactive: 0.19,inactive: 0.024,inactive: -0.006,inactive: -0.025,inactive: -0.089,–,–,inactive: 0.01,inactive: 0.044,inactive: 0.082,inactive: 0.097,inactive: 0.007
PRELID1 (UniProt Q9Y255),inactive: 0.392,inactive: 0.013,–,–,inactive: -0.054,inactive: 0.179,inactive: 0.047,inactive: -0.164,inactive: 0.061,inactive: -0.005,inactive: 0.013,inactive: -0.064,–,–,inactive: 0.123,–,inactive: 0.025,–,inactive: 0.057,inactive: 0.052

# Two entries from above, with tabs:
Target	log2 fold change [1]	log2 fold change [2]	log2 fold change [3]	log2 fold change [4]	log2 fold change [5]	log2 fold change [6]	log2 fold change [7]	log2 fold change [8]	log2 fold change [9]	log2 fold change [10]	log2 fold change [11]	log2 fold change [12]	log2 fold change [13]	log2 fold change [14]	log2 fold change [15]	log2 fold change [16]	log2 fold change [17]	log2 fold change [18]	log2 fold change [19]	log2 fold change [20]
PPP3CA (UniProt Q08209)	inactive: -0.059	inactive: 0.051	inactive: -0.031	inactive: -0.063	inactive: 0.006	inactive: -0.047	inactive: 0.042	inactive: -0.032	inactive: 0.051	inactive: -0.034	inactive: 0.074	–	inactive: -0.05	inactive: 0.016	inactive: 0.101	inactive: 0.112	inactive: -0.058	inactive: 0.061	inactive: 0.033	inactive: -0.126
PRG4 (UniProt Q92954)	inactive: 0.17	inactive: 0.081	active: -0.955	inactive: 0.174	inactive: 0.01	–	inactive: 0.034	inactive: 0.229	–	inactive: 0.08	inactive: -0.19	inactive: -0.014	inactive: 0.023	–	–	inactive: 0.004	inactive: -0.229	inactive: -0.114	inactive: -0.062	inactive: 0.098

# — the supplement of paper PMC10849652
